At least one compound was matched to its structure with a doubt left.
Biological target: T1, Tubulin (Sus scrofa, UniProt P02550+P02554)
T1 construct: Tubulin is purified from pig brain according to published methods; from tissue; host or cells: pig brain
Assay: Evaluation of the inhibition of tubulin polymerization (turbidimetry at 350 nm)
Assay type: biochemical
Details: pig brain tubulin 10 μM
Method: Briefly, the brains are ground and centrifuged in an extraction buffer. The tubulin contained in the supernatant of the extract undergoes two successive cycles of polymerization at 37° C. and depolymerization at 4° C., before being separated from the MAPs (Microtubule Associated Proteins) by chromatography on a phosphocellulose P11 column (Whatman). […] It is stored in a buffer known as RB/2 30% glycerol, the composition of which is 50 mM MES-NaOH [2-(N-morpholino)ethanesulphonic acid], pH 6.8; 0.25 mM MgCl2; 0.5 mM EGTA; 30% glycerol (v/v), 0.2 mM GTP (guanosine-5′-triphosphate).
The polymerization of tubulin to microtubules is monitored by turbidimetry as follows: the tubulin is adjusted to a concentration of 10 μM (1 mg/ml) in RB/2 30% glycerol buffer to which 1 mM GTP and 6 mM MgCl2 are added. […] The increase in the turbidity of the solution is monitored at 350 nm.
The products are dissolved at 10 mM in DMSO and added at variable concentrations (0.5 to 10 μM) to the tubulin solution before polymerization.

The chains behind the UniProt entries cited, without tags or fusion partners.
UniProt P02550, whole entry: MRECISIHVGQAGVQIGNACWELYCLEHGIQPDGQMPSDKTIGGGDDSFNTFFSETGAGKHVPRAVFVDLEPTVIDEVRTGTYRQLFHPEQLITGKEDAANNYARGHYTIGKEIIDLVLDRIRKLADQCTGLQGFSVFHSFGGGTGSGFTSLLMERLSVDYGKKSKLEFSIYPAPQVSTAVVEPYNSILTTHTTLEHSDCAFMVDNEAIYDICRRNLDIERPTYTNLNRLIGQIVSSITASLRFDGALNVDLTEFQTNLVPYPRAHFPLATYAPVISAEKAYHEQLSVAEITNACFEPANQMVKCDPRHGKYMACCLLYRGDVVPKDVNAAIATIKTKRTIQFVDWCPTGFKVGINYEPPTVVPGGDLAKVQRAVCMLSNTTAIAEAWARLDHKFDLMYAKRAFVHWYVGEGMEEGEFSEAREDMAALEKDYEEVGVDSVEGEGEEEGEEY
UniProt P02554, whole entry: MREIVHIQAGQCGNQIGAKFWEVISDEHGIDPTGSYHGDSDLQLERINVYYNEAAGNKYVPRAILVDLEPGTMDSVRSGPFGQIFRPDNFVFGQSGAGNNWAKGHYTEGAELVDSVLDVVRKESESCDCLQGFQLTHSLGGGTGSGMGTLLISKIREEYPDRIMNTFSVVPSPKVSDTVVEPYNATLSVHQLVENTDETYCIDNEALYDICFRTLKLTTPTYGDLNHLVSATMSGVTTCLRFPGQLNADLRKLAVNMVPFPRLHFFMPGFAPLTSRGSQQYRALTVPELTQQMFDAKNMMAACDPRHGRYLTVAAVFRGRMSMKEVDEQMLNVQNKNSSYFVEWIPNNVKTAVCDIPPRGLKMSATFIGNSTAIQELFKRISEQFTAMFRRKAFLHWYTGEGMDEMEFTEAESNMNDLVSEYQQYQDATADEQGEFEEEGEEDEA

CCOC(=O)c1[nH]cc2c1C=CC(c1ccccc1)(c1ccccc1)C2 [Example 11, Ethyl 5,5-diphenyl-4,5-dihydro-2H-isoindole-1-carboxylate]
Tubulin Activity at 25 μM: +
